PubChem BioAssay AID1671195, Yale University – 2021
In all, the deposit lists about 22,000 reagents; below is a random part of them. In the full data, about 1,510 (6.9%) got an active call. 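Active includes knockdowns raising or lowering LDL uptake; positive z-scores mean more uptake, negative mean less.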

Purpose: 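Knockdowns that increase or decrease uptake of fluorescent LDL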 (primary screen)
Cell system: human Huh7 hepatoma cells
Reagent: siRNA pool against human genes, 18 nM
Timing: about 2 to 2.5 days of knockdown, then 8 h LDL uptake
Challenge: DiI-labelled LDL at 30 µg/ml for 8 h, in lipoprotein-deficient serum medium
Measured: 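Fluorescent LDL signal imaged in cells, scaled to the plate median, robust z-score for each replicate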
Reading the numbers: robust z-score: higher = more LDL uptake after knockdown
Rule for the call: 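Active when two or more replicates show a robust z-score above 2 or below -2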

no.	Target gene	robust z-score, replicate 1	robust z-score, replicate 2	robust z-score, replicate 3	activity call
1	FCER1G	-0.233	0.779	0.348	inactive
2	DHFR	-0.624	-0.499	-0.86	inactive
3	TIMM44	-0.308	0.38	0.197	inactive
4	NSF	1.16	2.27	1.69	inactive
5	PHF23	-0.686	-0.00478	-0.522	inactive
6	LOC389099 (retired record)	0.514	0.74	0.477	inactive
7	CATSPERG	-1.49	-1.88	-0.795	inactive
8	ARHGEF19	-2.14	-1.52	-1.77	inactive
9	DNAJC24	0.162	-0.0772	0.164	inactive
10	ZFX	0.845	0.621	0.311	inactive
11	TATDN3	-0.563	0.275	-0.0996	inactive
12	EEF1A1P33	-0.785	-0.71	-0.288	inactive
13	VN1R1	0.167	-0.562	0.125	inactive
14	RACK1	1.16	2.31	2.91	active
15	APOA5	-0.675	-0.74	-0.811	inactive
16	SLC5A7	-0.518	-0.169	-0.337	inactive
17	C3orf36	1.06	0.651	0.776	inactive
18	CACNA2D1	2.4	1.58	1.96	active
19	FLJ43870 (retired record)	-0.367	0.235	0.0127	inactive
20	FAM227A	0.333	0.492	0.55	inactive
21	SEC31A	0.0519	-0.918	0.535	inactive
22	LOC440464 (retired record)	0.881	0.799	1.2	inactive
23	SLC24A4	0.0979	-0.388	0.0327	inactive
24	LOC440377 (retired record)	1.79	1.95	1.57	inactive
25	FLJ12120 (retired record)	-0.97	-0.715	-1.28	inactive
26	TFPI2	-0.51	0.431	-0.121	inactive
27	FSAF1	-0.738	-0.622	0.333	inactive
28	TDP2	0.141	-0.407	-0.121	inactive

Reprinted from the entries so far, 5 entries:
no.	Target gene	robust z-score, replicate 1	robust z-score, replicate 2	robust z-score, replicate 3	activity call
20	FAM227A	0.333	0.492	0.55	inactive
21	SEC31A	0.0519	-0.918	0.535	inactive
22	LOC440464 (retired record)	0.881	0.799	1.2	inactive
23	SLC24A4	0.0979	-0.388	0.0327	inactive
24	LOC440377 (retired record)	1.79	1.95	1.57	inactive
